Assay results from PMC4316790.
No constants are given. Whether binding was seen depends on the method and setting. Some binding calls cover weakened binding; strength is not graded here.

T1: NlpI, full length, in pBT (bacterial two-hybrid bait) (E. coli) (UniProt P0AFB1)
T1 sequence: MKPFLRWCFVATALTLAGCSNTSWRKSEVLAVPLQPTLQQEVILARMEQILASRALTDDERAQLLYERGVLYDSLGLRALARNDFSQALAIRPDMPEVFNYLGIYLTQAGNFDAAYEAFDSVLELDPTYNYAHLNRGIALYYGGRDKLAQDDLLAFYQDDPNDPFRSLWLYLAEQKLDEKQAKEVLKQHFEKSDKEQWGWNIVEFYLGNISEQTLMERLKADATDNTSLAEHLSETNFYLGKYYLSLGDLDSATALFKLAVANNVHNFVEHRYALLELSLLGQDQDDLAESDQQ


Columns and labels:
[1] = biological target: NlpI-M (mature NlpI without signal peptide), C-terminal His-tagged, from pQE80-nlpI-M (E. coli) (UniProt P0AFB1); experiment: co-purification with Western blot; NlpI-M expressed and purified in ΔibpA; co-eluted protein found by Western blot
[2] = biological target: T1, NlpI, full length, in pBT (bacterial two-hybrid bait) (E. coli); experiment: two-hybrid; BacterioMatch II bacterial two-hybrid; NlpI or NlpI-M in pBT, IbpB in pTRG; growth on dual selective screening medium (5 mM 3-AT, streptomycin)
[3] = biological target: NlpI-M (nlpI without N-terminal signal sequence) in pBT (bacterial two-hybrid bait) (E. coli) (UniProt P0AFB1); experiment: as above

binding [1] | binding [2] | binding [3] | Binder
binds |  |  | Heat shock protein IbpB (protein, UniProt P0C058 1-142) MRNFDLSPLMRQWIGFDKLANALQNAGESQSFPPYNIEKSDDNHYRITLALAGFRQEDLEIQLEGTRLSVKGTPEQPKEEKKWLHQGLMNQPFSLSFTLAENMEVSGATFVNGLLHIDLIRNEPEPIAAQRIAISERPALNS
 | binds | binds | IbpB in pTRG (bacterial two-hybrid target) (protein, UniProt P0C058 1-142) MRNFDLSPLMRQWIGFDKLANALQNAGESQSFPPYNIEKSDDNHYRITLALAGFRQEDLEIQLEGTRLSVKGTPEQPKEEKKWLHQGLMNQPFSLSFTLAENMEVSGATFVNGLLHIDLIRNEPEPIAAQRIAISERPALNS
